Measured values: publication PMC9254885
Substitutions are numbered along the chain they refer to. Results are given in words; binding and its absence hold for the method and conditions named. In cells and extracts the contact can be indirect. Some entries that bind do so weakly or less than the wild type. Sequences can lack the tags named with a protein.

Assays:
Assay in all cases: co-IP; FLAG-tagged wild-type, D177N or Y891F OGA overexpressed in HeLa cells; co-IP with anti-CPS1 and anti-FLAG antibody; CPS1 endogenous
[1] = target: T1, FLAG-tagged OGA D177N mutant (UniProt O60502)
T1 sequence: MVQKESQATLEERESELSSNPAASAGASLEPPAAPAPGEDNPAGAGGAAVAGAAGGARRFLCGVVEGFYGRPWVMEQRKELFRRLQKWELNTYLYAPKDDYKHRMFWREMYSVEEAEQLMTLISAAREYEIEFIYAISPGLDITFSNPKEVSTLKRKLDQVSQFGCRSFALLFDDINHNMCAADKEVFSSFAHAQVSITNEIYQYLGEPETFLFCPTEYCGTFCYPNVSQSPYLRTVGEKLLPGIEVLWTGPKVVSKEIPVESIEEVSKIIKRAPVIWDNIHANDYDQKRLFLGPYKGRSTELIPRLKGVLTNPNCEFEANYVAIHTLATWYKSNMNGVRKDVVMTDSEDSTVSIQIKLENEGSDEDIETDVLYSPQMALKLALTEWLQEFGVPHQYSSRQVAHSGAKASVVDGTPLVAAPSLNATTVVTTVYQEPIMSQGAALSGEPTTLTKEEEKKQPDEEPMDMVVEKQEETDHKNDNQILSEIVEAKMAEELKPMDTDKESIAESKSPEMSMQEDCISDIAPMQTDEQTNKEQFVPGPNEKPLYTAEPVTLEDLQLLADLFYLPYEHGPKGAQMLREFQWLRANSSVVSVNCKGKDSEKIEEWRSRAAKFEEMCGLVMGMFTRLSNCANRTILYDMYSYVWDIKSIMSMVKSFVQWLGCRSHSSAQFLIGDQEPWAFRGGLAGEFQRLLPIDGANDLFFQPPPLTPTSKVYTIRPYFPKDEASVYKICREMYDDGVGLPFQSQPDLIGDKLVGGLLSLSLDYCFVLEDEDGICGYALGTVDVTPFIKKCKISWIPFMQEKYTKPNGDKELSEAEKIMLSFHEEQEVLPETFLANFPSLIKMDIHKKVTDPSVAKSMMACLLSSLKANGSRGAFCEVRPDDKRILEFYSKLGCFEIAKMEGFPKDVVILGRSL

[2] = target: T2, FLAG-tagged wild-type OGA (O-GlcNAcase) (UniProt O60502)
T2 sequence: T1 sequence with N177D

[3] = target: T3, FLAG-tagged OGA Y891F mutant (UniProt O60502)
T3 sequence: T1 sequence with N177D, Y891F

Measured: binding

B1: endogenous CPS1 (HeLa cells) (enzyme, UniProt P31327 39-1500)
chain: LSVKAQTAHIVLEDGTKMKGYSFGHPSSVAGEVVFNTGLGGYPEAITDPAYKGQILTMANPIIGNGGAPDTTALDELGLSKYLESNGIKVSGLLVLDYSKDYNHWLATKSLGQWLQEEKVPAIYGVDTRMLTKIIRDKGTMLGKIEFEGQPVDFVDPNKQNLIAEVSTKDVKVYGKGNPTKVVAVDCGIKNNVIRLLVKRGAEVHLVPWNHDFTKMEYDGILIAGGPGNPALAEPLIQNVRKILESDRKEPLFGISTGNLITGLAAGAKTYKMSMANRGQNQPVLNITNKQAFITAQNHGYALDNTLPAGWKPLFVNVNDQTNEGIMHESKPFFAVQFHPEVTPGPIDTEYLFDSFFSLIKKGKATTITSVLPKPALVASRVEVSKVLILGSGGLSIGQAGEFDYSGSQAVKAMKEENVKTVLMNPNIASVQTNEVGLKQADTVYFLPITPQFVTEVIKAEQPDGLILGMGGQTALNCGVELFKRGVLKEYGVKVLGTSVESIMATEDRQLFSDKLNEINEKIAPSFAVESIEDALKAADTIGYPVMIRSAYALGGLGSGICPNRETLMDLSTKAFAMTNQILVEKSVTGWKEIEYEVVRDADDNCVTVCNMENVDAMGVHTGDSVVVAPAQTLSNAEFQMLRRTSINVVRHLGIVGECNIQFALHPTSMEYCIIEVNARLSRSSALASKATGYPLAFIAAKIALGIPLPEIKNVVSGKTSACFEPSLDYMVTKIPRWDLDRFHGTSSRIGSSMKSVGEVMAIGRTFEESFQKALRMCHPSIEGFTPRLPMNKEWPSNLDLRKELSEPSSTRIYAIAKAIDDNMSLDEIEKLTYIDKWFLYKMRDILNMEKTLKGLNSESMTEETLKRAKEIGFSDKQISKCLGLTEAQTRELRLKKNIHPWVKQIDTLAAEYPSVTNYLYVTYNGQEHDVNFDDHGMMVLGCGPYHIGSSVEFDWCAVSSIRTLRQLGKKTVVVNCNPETVSTDFDECDKLYFEELSLERILDIYHQEACGGCIISVGGQIPNNLAVPLYKNGVKIMGTSPLQIDRAEDRSIFSAVLDELKVAQAPWKAVNTLNEALEFAKSVDYPCLLRPSYVLSGSAMNVVFSEDEMKKFLEEATRVSQEHPVVLTKFVEGAREVEMDAVGKDGRVISHAISEHVEDAGVHSGDATLMLPTQTISQGAIEKVKDATRKIAKAFAISGPFNVQFLVKGNDVLVIECNLRASRSFPFVSKTLGVDFIDVATKVMIGENVDEKHLPTLDHPIIPADYVAIKAPMFSWPRLRDADPILRCEMASTGEVACFGEGIHTAFLKAMLSTGFKIPQKGILIGIQQSFRPRFLGVAEQLHNEGFKLFATEATSDWLNANNVPATPVAWPSQEGQNPSLSSIRKLIRDGSIDLVINLPNNNTKFVHDNYVIRRTAVDSGIPLLTNFQVTKLFAEAVQKSRKVDSKSLFHYRQYSAGKAA
binds: all assays above
